The subject of the assay is normal esophageal epithelium cell line EACN42. Kind of assay: FDA library drug sensitivity testing (CellTiter-Glo, 72 h), normal control cells. The following applies: Homo sapiens, cell viability (ATP), max test concentration 10μM. The format is cell-based. The procedure:
The normal esophageal epithelium cell line EACN42 was established in the Capobianco laboratory. The cell lines was derived from human normal epithelium and immortalized using HPV E6-E7.
Drug sensitivity testing (DST) was performed as described previously. […] Individual drugs were dissolved in 100% DMSO and tested in duplicates starting at a maximal test concentration of 10μM then over a 20,000-fold concentration range to generate dose response curves. Wells with assay buffer containing DMSO served as negative controls. 1000 exponentially growing cells were seeded per well in 384-well micro-titer plates and incubated in the presence of compounds in a humidified environment at 37°C and 5% CO2. After 72 hours of treatment, cell viability was assessed by measuring ATP levels via bioluminescence (CellTiter-Glo, Promega) according to manufactures recommendations. Interpretation of curve parameters was performed according to the modified drug sensitivity scoring (DSSmod) function developed by Swords et al. […] Given in this way, the sDSSmod incorporated information on each drug’s potency, efficacy, effect range and therapeutic index, making it possible to prioritize compounds over multiple parameters using a single numerical metric. […] All calculations and scoring routines are implemented in MatLab and additional curve fitting and statistical analyses are performed in GraphPad prism.

The structures appear in SMILES notation.

In general, EC50 refers to the concentration that produces a half-maximal response. In turn, `O=C(CCCCCCC(=O)Nc1ccccc1)NO` [Vorinostat] displayed an EC50 of 4.41 µM. That is a single-digit micromolar value.
